Legend:
[1] = test system: Plasmodium falciparum F32-TEM (artemisinin-sensitive twin line); assay: Standard chemosensitivity assay (SYBR Green I), F32-TEM; assay type: cell-based; details: 48 h incubation, mean ± SEM of 3 experiments (* mean of 2), read-out: Antiplasmodial Activity: IC50, F32-TEM
Description: F32-ART, an artemisinin-resistant strain, and F32-TEM, its artemisinin-sensitive twin line, were obtained as previously reported. They differ by eight mutations in seven genes (PF3D7_0110400, PF3D7_1343700, PF3D7_0213400, PF3D7_1115700, PF3D7_1302100, PF3D7_1459600, PF3D7_1464500) among them the M476I mutation on the kelch13 gene. F32-ART and F32-TEM strains have RSA^0–3 h values up to 12% and less than 0.1%, respectively. […] Both strains were cultured, in the same conditions, according to the Trager and Jensen protocol with modifications. Briefly, parasites were cultivated in RPMI-1640 medium (Biowest) at 2% hematocrit in human red blood cells and 5% human serum (EFS, French Blood Bank) under 5% CO2 in a humid atmosphere at 37 °C. […]
The antimalarial activities of the compounds were evaluated on both strains. […] Antimalarial activities were determined with the SYBR Green I method. […] Plates were read on a BioTek FLX800 Microplate Fluorescence Reader (Bio-Tek instruments, Winooski, VT, USA) (λexcitation = 485 nm, λemission = 528 nm). […] IC50 and IC90 values were determined using GraphPad Prism version 7.05 (GraphPad Software, San Diego, CA, USA). […] When it is relevant, statistical significance between results obtained with both parasite strains was determined by a Mann–Whitney test using GraphPad Prism version 7.05.

[2] = test system: Plasmodium falciparum F32-ART (artemisinin-resistant strain); assay: Standard chemosensitivity assay (SYBR Green I), F32-ART; assay type: cell-based; details: 48 h incubation, mean ± SEM of 3 experiments (* mean of 2), read-out: Antiplasmodial Activity: IC50, F32-ART
Description: They differ by eight mutations in seven genes (PF3D7_0110400, PF3D7_1343700, PF3D7_0213400, PF3D7_1115700, PF3D7_1302100, PF3D7_1459600, PF3D7_1464500) among them the M476I mutation on the kelch13 gene. F32-ART and F32-TEM strains have RSA^0–3 h values up to 12% and less than 0.1%, respectively. […] Both strains were cultured, in the same conditions, according to the Trager and Jensen protocol with modifications. Briefly, parasites were cultivated in RPMI-1640 medium (Biowest) at 2% hematocrit in human red blood cells and 5% human serum (EFS, French Blood Bank) under 5% CO2 in a humid atmosphere at 37 °C.
The antimalarial activities of the compounds were evaluated on both strains. […] Antimalarial activities were determined with the SYBR Green I method. Each drug concentration was tested in triplicate. The parasites were incubated with the drugs for 48 h. Plates were read on a BioTek FLX800 Microplate Fluorescence Reader (Bio-Tek instruments, Winooski, VT, USA) (λexcitation = 485 nm, λemission = 528 nm). Control parasite culture (i.e., RPMI with 0.5% DMSO) was referred to as 100% growth. IC50 and IC90 values were determined using GraphPad Prism version 7.05 (GraphPad Software, San Diego, CA, USA). […] When it is relevant, statistical significance between results obtained with both parasite strains was determined by a Mann–Whitney test using GraphPad Prism version 7.05.

O=C(CCCCCCC(=O)Nc1ccccc1)NO [SAHA]
IC50 [1]: 390 ± 10 nM
IC50 [2]: 540 ± 55 nM
